The values below come from the supplement of paper PMC4604168 (melanoma cell lines).

This is one part of the list. Single values are uncertain, as repeats are few or missing.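 Imaging used 1,536-well plates; nuclei positive for cleaved PARP by antibody were divided by total DNA-stained nuclei to yield the apoptosis fraction. Doses for screening kept most cells viable, and cell lines differ markedly in resting and induced cleaved-PARP levels.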

This assay relates to WM1716. Put plainly: cleaved PARP positive nuclei fraction relative to DMSO control; melanoma cells; higher = more apoptosis. As to conditions: library dose: low library concentration; 72 h.
For `Cc1cn(-c2cc(NC(=O)c3ccc(C)c(Nc4nccc(-c5cccnc5)n4)c3)cc(C(F)(F)F)c2)cn1` [nilotinib] + NC(=O)c1ccc(N(C(N)=O)c2c(F)cccc2F)nc1-c1ccc(F)cc1F [VX702] (first compound 0.2 µM, partner dose 0.4 µM), the “cleaved PARP positive nuclei fraction” value was 65.9%. The same measure for `CC[C@]1(O)C[C@H]2CN(CCc3c([nH]c4ccccc34)[C@@](C(=O)OC)(c3cc4c(cc3OC)N(C=O)[C@H]3[C@@](O)(C(=O)OC)[C@H](OC(C)=O)[C@]5(CC)C=CCN6CC[C@]43[C@@H]65)C2)C1` [vincristine] + C[C@@H](N)c1ccc(C(=O)Nc2ccnc3[nH]ccc23)cc1 [RKI983] (first compound 0.0001 µM, partner dose 0.4 µM): 3480%; for `Cc1cn(-c2cc(NC(=O)c3ccc(C)c(Nc4nccc(-c5cccnc5)n4)c3)cc(C(F)(F)F)c2)cn1` [nilotinib] + CC(C)C[C@H](NC(=O)[C@H](Cc1ccccc1)NC(=O)c1cnccn1)B(O)O [Bortezomib] (first compound 0.2 µM, partner dose 0.001 µM): 81.6%.

In the case of `O=C(Nc1cc(C(F)(F)F)cc(C(F)(F)F)c1)c1cc(Cl)ccc1O` + CC(=O)c1c(C)c2cnc(Nc3ccc(N4CCNCC4)cn3)nc2n(C2CCCC2)c1=O [palbociclib] (first compound 0.016 µM, partner dose 0.04 µM), the “cleaved PARP positive nuclei fraction” value came to 107%. The same measure for `O=C(Nc1cc(C(F)(F)F)cc(C(F)(F)F)c1)c1cc(Cl)ccc1O` + OCc1c[nH]c2ccccc12 [Indole-3-carbinol] (first compound 0.016 µM, partner dose 0.8 µM): 72.5%. The same measure for `COc1cc([C@@H]2c3cc4c(cc3[C@@H](O[C@@H]3O[C@@H]5CO[C@@H](C)O[C@H]5[C@H](O)[C@H]3O)[C@H]3COC(=O)[C@H]23)OCO4)cc(OC)c1O` [etoposide] + CS(=O)(=O)CCNCc1ccc(-c2ccc3ncnc(Nc4ccc(OCc5cccc(F)c5)c(Cl)c4)c3c2)o1 [lapatinib] (first compound 0.02 µM, partner dose 0.8 µM): 78.4%. On to `CCCCCCCCCCCCCCCCCCOP(=O)([O-])OC1CC[N+](C)(C)CC1` [Perifosine] + NC1(c2ccc(-c3nc4ccn5c(=O)[nH]nc5c4cc3-c3ccccc3)cc2)CCC1 [MK2206] (first compound 0.4 µM, partner dose 0.4 µM), for which the “cleaved PARP positive nuclei fraction” value is 80.6%. In the case of `N#CC[C@H](C1CCCC1)n1cc(-c2ncnc3[nH]ccc23)cn1` [ruxolitinib] + COc1ccc(Cl)c(Nc2nc3ccccc3nc2NS(=O)(=O)c2cccc(NC(=O)C(C)(C)N)c2)c1 [XL147] (first compound 1 µM, partner dose 0.8 µM) it was 40%; in that of `O=C(Nc1cc(C(F)(F)F)cc(C(F)(F)F)c1)c1cc(Cl)ccc1O` + COc1ccc(C2=N[C@@H](c3ccc(Cl)cc3)[C@@H](c3ccc(Cl)cc3)N2C(=O)N2CCNC(=O)C2)c(OC(C)C)c1 [Nutlin-3] (first compound 0.016 µM, partner dose 0.1 µM), 290%.

`Cc1cc(Nc2cc(N3CCN(C)CC3)nc(Sc3ccc(NC(=O)C4CC4)cc3)n2)n[nH]1` [Tozasertib] + CC[C@]1(O)C[C@H]2CN(CCc3c([nH]c4ccccc34)[C@@](C(=O)OC)(c3cc4c(cc3OC)N(C=O)[C@H]3[C@@](O)(C(=O)OC)[C@H](OC(C)=O)[C@]5(CC)C=CCN6CC[C@]43[C@@H]65)C2)C1 [vincristine] (first compound 0.006 µM, partner dose 0.0001 µM): the “cleaved PARP positive nuclei fraction” value stood at 142%.

Regarding `CC[C@]1(O)C[C@H]2CN(CCc3c([nH]c4ccccc34)[C@@](C(=O)OC)(c3cc4c(cc3OC)N(C=O)[C@H]3[C@@](O)(C(=O)OC)[C@H](OC(C)=O)[C@]5(CC)C=CCN6CC[C@]43[C@@H]65)C2)C1` [vincristine] + COc1ccc(Cl)c(Nc2nc3ccccc3nc2NS(=O)(=O)c2cccc(NC(=O)C(C)(C)N)c2)c1 [XL147] (first compound 0.0001 µM, partner dose 0.8 µM), the “cleaved PARP positive nuclei fraction” value amounted to 149%. The same measure for `Cc1cn(-c2cc(NC(=O)c3ccc(C)c(Nc4nccc(-c5cccnc5)n4)c3)cc(C(F)(F)F)c2)cn1` [nilotinib] + COc1ccc(Cl)c(Nc2nc3ccccc3nc2NS(=O)(=O)c2cccc(NC(=O)C(C)(C)N)c2)c1 [XL147] (first compound 0.2 µM, partner dose 0.8 µM): 111%.
